The list shows a part of the results.
Target: OsWRKY34 (Oryza sativa, UniProt Q0JBA9 1-250)
Assay: protein-binding microarray (RPBM); PBS, 2% BSA, 51.3 ng/ul salmon testes DNA, 50 uM zinc acetate, 200 nM TF, 25 C, 1 h; high values mean tight binding
Settings: protein: recombinant; tags: N-terminal polyhistidine and DsRed monomer fusion (pET32a); label: CyDye5-dUTP incorporated in the synthesized complementary strand; 3' TTTTT single-stranded linker to array surface; dsDNA, one strand shown
How it was run: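 The binding signal is fluorescence intensity per array feature (arbitrary units). Readings came from an Axon 4000B scanner after a washed, 2% BSA-blocked, double-stranded custom Agilent array had been incubated for 1 h at 25 °C with 200 nM protein and 50 µM zinc acetate. The protein was a Ni–NTA-purified transcription factor fused N-terminally to polyhistidine and DsRed, expressed in E. coli BL21-CodonPlus.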

Protein sequences, listed by entry. Tags and fused reporters are not part of them.
UniProt Q0JBA9, entry or part of it: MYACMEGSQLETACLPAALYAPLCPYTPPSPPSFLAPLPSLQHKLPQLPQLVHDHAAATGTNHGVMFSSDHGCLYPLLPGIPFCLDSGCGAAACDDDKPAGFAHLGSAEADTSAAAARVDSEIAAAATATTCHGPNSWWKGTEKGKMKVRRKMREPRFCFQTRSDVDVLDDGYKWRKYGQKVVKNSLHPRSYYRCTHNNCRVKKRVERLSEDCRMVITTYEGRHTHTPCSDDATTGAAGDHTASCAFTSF

Sequence	binding signal
GTACTACTCCAAATCGTGTTCCACATTTCTATTTTGCACACGGAGTCACCTAGTGCAG	10200 fluorescence intensity (a.u.)
ATTTTTGCATAACTACCATCCAATCACCATTTCTGAGGCACGGAGTCACCTAGTGCAG	8380 fluorescence intensity (a.u.)
ACTCTATCTGCTTTTAAATGTATGGTGCTATATATATGATCGGAGTCACCTAGTGCAG	8940 fluorescence intensity (a.u.)
TGTTTGAAAACCCCAAGCCATCCACCATTGACCAATGCCACGGAGTCACCTAGTGCAG	8850 fluorescence intensity (a.u.)
CTATATCCTCTGTTCGTCACTGCCTTCCTCTCCAAGTCCACGGAGTCACCTAGTGCAG	8400 fluorescence intensity (a.u.)
ATTGGCTGCTCATCTGCTGTACCCACATTTCATTTGGCCTCGGAGTCACCTAGTGCAG	8070 fluorescence intensity (a.u.)
AATTATTTTTCCTATCATTTGATTTATTGTTGAATATACTCGGAGTCACCTAGTGCAG	8330 fluorescence intensity (a.u.)
CTGCTCGCTTGCTTGCGCTGTCCAGTTTAGCTCTGTCTAGCGGAGTCACCTAGTGCAG	8630 fluorescence intensity (a.u.)
GAGGTACTTTGCACACTCTGTTCGCTGGTAAGCCGCGTTACGGAGTCACCTAGTGCAG	10000 fluorescence intensity (a.u.)
TGCTTTCCTACTCCCTGTGGGTGCAGCCGTTTTCATGCTCCGGAGTCACCTAGTGCAG	8120 fluorescence intensity (a.u.)
CCAATATGGACTCTGGACTCGTCTTTGAATGTTTCTTATTCGGAGTCACCTAGTGCAG	8680 fluorescence intensity (a.u.)
AGATCGGGACCTAACATCCTCATCAGCCACTCCACCCGTTCGGAGTCACCTAGTGCAG	9030 fluorescence intensity (a.u.)
AACGCTCATCTTATAGGCTGCTTCGATTCCTACTCGTCACCGGAGTCACCTAGTGCAG	11500 fluorescence intensity (a.u.)
GCTATGTTGGACTCTCTCTTTGAACATGCATGCGAGCAATCGGAGTCACCTAGTGCAG	8100 fluorescence intensity (a.u.)
CGCCCCAGGGCCACCACCTCGCCGCCGGTAAACCCTAGCCCGGAGTCACCTAGTGCAG	9540 fluorescence intensity (a.u.)
GGGCTAGTGTTTTTATGGTGTGGTTGGGGATTCAGCTTGCCGGAGTCACCTAGTGCAG	11600 fluorescence intensity (a.u.)
CCCGACCACGACTCTCTCTCCTCTTCGACTCTCTCCGCAACGGAGTCACCTAGTGCAG	10700 fluorescence intensity (a.u.)
CCTAATTTACTACTGCGTCTCTTATGTTCAGTATCTGTTCCGGAGTCACCTAGTGCAG	12000 fluorescence intensity (a.u.)
GGAGGGCGGTGGCGAGGGCGGCGGTGGCGCGGATGCTGGACGGAGTCACCTAGTGCAG	8960 fluorescence intensity (a.u.)
GTGCCGCCGACTTTCCTACATCGCGTCCATCCGTGTTCTTCGGAGTCACCTAGTGCAG	10200 fluorescence intensity (a.u.)
AAAATTGTCTTCTTTTTCTTCTCTGTTTTTCTCTCACTTACGGAGTCACCTAGTGCAG	12700 fluorescence intensity (a.u.)

Sequence	binding signal
TTAATTCTCATTCTTTAATTAATTTGGCCGTGGATTTATTCGGAGTCACCTAGTGCAG	8380 fluorescence intensity (a.u.)
AACCCCTACGTTTTAATGCGACCCGCCATCAATTCACTCTCGGAGTCACCTAGTGCAG	9220 fluorescence intensity (a.u.)
TGGGATGTTGGATTATTGTTGTACTATACATGGGTTTCAGCGGAGTCACCTAGTGCAG	8390 fluorescence intensity (a.u.)
CTGTCTTTTTGGGGTGTACTGGATATTACTCCCTCCGTCCCGGAGTCACCTAGTGCAG	9380 fluorescence intensity (a.u.)
CCCCTATGCTAGCATGCTACACCCTGTTTTGATCTCACTACGGAGTCACCTAGTGCAG	10600 fluorescence intensity (a.u.)
AGCTCCGGTCCTGACCTCGCCATCGCCATCTCTCCAGTCTCGGAGTCACCTAGTGCAG	10900 fluorescence intensity (a.u.)
TTACGTTATAGTTTTTTCAGTTCGCCCGTACTGATCATGTCGGAGTCACCTAGTGCAG	8910 fluorescence intensity (a.u.)
GGGAAAGGCCGGGGCTTGGTGGTGGTGGTGGTGGTAAGTTCGGAGTCACCTAGTGCAG	14700 fluorescence intensity (a.u.)
GCCAATTTTTTCTCCTCACATCTATTTTACCCTATTATTCCGGAGTCACCTAGTGCAG	8390 fluorescence intensity (a.u.)
TTCCGTCTCGTATTCGCTCCGTATCTGTATTCGATAATATCGGAGTCACCTAGTGCAG	8040 fluorescence intensity (a.u.)
CTATCTAACTACGAACTTGCCATTTCCCTACAGTACATATCGGAGTCACCTAGTGCAG	8370 fluorescence intensity (a.u.)
TGACGCTAAGATGTACCTTTTGATCATTTTTCTTTGAGGACGGAGTCACCTAGTGCAG	8240 fluorescence intensity (a.u.)
TTCTTGTGGTCTACTGGCCAAAATTTTGACTCCTTCAGTTCGGAGTCACCTAGTGCAG	9450 fluorescence intensity (a.u.)
GCGCTTAACTTTGGTCTAATTTTCATTTCTTAATCTTCATCGGAGTCACCTAGTGCAG	8820 fluorescence intensity (a.u.)
TGACTTTTTCTCACATGTTTGACCATTCGTCTTATTAAAACGGAGTCACCTAGTGCAG	12500 fluorescence intensity (a.u.)
TATGCTGGTTCTGTTGTTGTGCAAGAAACTATTGCCTTACCGGAGTCACCTAGTGCAG	8060 fluorescence intensity (a.u.)
CTTTATTTTTTTTGAGTTTTTCTTTCCAGGTTTCTCGATCCGGAGTCACCTAGTGCAG	9110 fluorescence intensity (a.u.)
TGACTTTTTCTCACATGTTTGACCATTCGTCTTATTCAAACGGAGTCACCTAGTGCAG	10900 ± 914 fluorescence intensity (a.u.)
CTCTCTTTCTTGGCCGTCTCTCTTATATCCCTCAATTTAACGGAGTCACCTAGTGCAG	14900 fluorescence intensity (a.u.)
GGTATCTTCAGTTCTGCACGCCTATTTAACCGCCGAATTCCGGAGTCACCTAGTGCAG	10900 fluorescence intensity (a.u.)
CAACGCTAATATCATCACCGTCTCTGTCACACCTTCCAAACGGAGTCACCTAGTGCAG	8570 fluorescence intensity (a.u.)

Sequence	binding signal
ATAAGTTTCTCATCATGCTTTATTTATATTATTTTCTTTTCGGAGTCACCTAGTGCAG	10900 fluorescence intensity (a.u.)
CGTCTGCCCTGTCCTCTCCTCATCGACCGGCGCCGGAAGGCGGAGTCACCTAGTGCAG	8110 fluorescence intensity (a.u.)
TACTTTGAGCTCCGGTCATTATCGATCTTGACCAGAGAGACGGAGTCACCTAGTGCAG	8070 fluorescence intensity (a.u.)
TGGGCCCATATGCTTTATTGTTTTTCCGGACCCAATTGTCCGGAGTCACCTAGTGCAG	8270 fluorescence intensity (a.u.)
TTGCTTCCACTCATGCAACTGCTTTTGCACAACTTGATGACGGAGTCACCTAGTGCAG	9850 fluorescence intensity (a.u.)
ATCAATGCCTACTAATATGATTCGTGTTATTGTCCGTGTTCGGAGTCACCTAGTGCAG	10100 fluorescence intensity (a.u.)
CTCTCCCACTCTTCTCTCTGGATTGGGCAAGCCGGCCGGTCGGAGTCACCTAGTGCAG	8860 fluorescence intensity (a.u.)
TTCCTCTCCCGACCCTGACGTGGTTCACTTTGAGTATCGCCGGAGTCACCTAGTGCAG	15900 fluorescence intensity (a.u.)
TACATGTATCTAGCCATGTTTTCATATGAATTATTAGTTCCGGAGTCACCTAGTGCAG	10200 fluorescence intensity (a.u.)
GTGATTCCTCCGCGCTTCACTCCACCACCACCGCTGTACCCGGAGTCACCTAGTGCAG	8090 fluorescence intensity (a.u.)
CTAACCCTAACTTGGCCTTTTTTTTAAGGGAATGCTAGTCCGGAGTCACCTAGTGCAG	9150 fluorescence intensity (a.u.)
ATCGGGGTTGTGGAAGTCCAGATTTGGATCCTGCAGGCTCCGGAGTCACCTAGTGCAG	8160 fluorescence intensity (a.u.)
CATGTATTGGTCATTGTTAGCTATTACACAGGCATTTATTCGGAGTCACCTAGTGCAG	8500 fluorescence intensity (a.u.)
TTCGCTGTAGATTTGGTTTTGTTTTATTTGTGTTTTGCTTCGGAGTCACCTAGTGCAG	10400 fluorescence intensity (a.u.)
ATATTCTTTCCAATTTTTTACCCTCATGCAACCATATTTCCGGAGTCACCTAGTGCAG	10700 fluorescence intensity (a.u.)
GCAGACCACTGTACTTGGCCCGCGAGTGTCCGATGACATCCGGAGTCACCTAGTGCAG	8080 fluorescence intensity (a.u.)
GATCGCAGGCCATCAGCTTCCTTATCCGGCTAACTGACGACGGAGTCACCTAGTGCAG	10900 fluorescence intensity (a.u.)
ATACAATATGCATGTTACACATTAGTAGTTTCGTAAAGTTCGGAGTCACCTAGTGCAG	9040 fluorescence intensity (a.u.)
GCTCTTTGGCCTGCTTCAGCCTTCAGCTTCTCCATGGTTTCGGAGTCACCTAGTGCAG	10700 fluorescence intensity (a.u.)
GTCGGCGCGACCGCGGTCAAACGGCATTTTGGACCGGCGACGGAGTCACCTAGTGCAG	10100 fluorescence intensity (a.u.)
TGGCTATTGTCTTTCACTTTTTCGTCCGTTGGATTTTGCACGGAGTCACCTAGTGCAG	9200 fluorescence intensity (a.u.)

Sequence	binding signal
GCTAAGATTGATATCCTGTTTGGTCAAATGCACGCTCTTTCGGAGTCACCTAGTGCAG	9360 fluorescence intensity (a.u.)
AGTGCACTCAGTCCCTTCCCCTACTTCCTCTTTTTTTTTTCGGAGTCACCTAGTGCAG	8310 fluorescence intensity (a.u.)
CAGTGATCATTTCATCTACACACATATTCCGGTTTAACAACGGAGTCACCTAGTGCAG	8430 fluorescence intensity (a.u.)
GCTATGTATTGTGCAGTAATGTTAGGTTGTTTATGAGTTTCGGAGTCACCTAGTGCAG	9930 fluorescence intensity (a.u.)
GCCCATCTTCTCCTAATTTCTGTGAGTAATCCATTCATAACGGAGTCACCTAGTGCAG	8670 fluorescence intensity (a.u.)
AGTTTGGTCAAGTTTTTTCAGTTCTTTTTTTTCTATTAATCGGAGTCACCTAGTGCAG	12800 fluorescence intensity (a.u.)
CTCTTAGCAATGCTGACTGGTCCGATCAAAGTCAACGGTTCGGAGTCACCTAGTGCAG	8730 fluorescence intensity (a.u.)
ATGGCACTAGCTGCCGTGGAGAATCTCTATGCATTGTTTCCGGAGTCACCTAGTGCAG	8160 fluorescence intensity (a.u.)
CCTTACTATGTGTGTCATCCAACATCTCTATGATAAATTTCGGAGTCACCTAGTGCAG	8590 fluorescence intensity (a.u.)
TTGGTTGGTTGGTTGATTGCTCGCGCCCCGCGCGGTTGCGCGGAGTCACCTAGTGCAG	12200 fluorescence intensity (a.u.)
CCATCGCCGCTCTGCCTGCATCCTGCGCTACTCTGCCCACCGGAGTCACCTAGTGCAG	9770 fluorescence intensity (a.u.)
ACTTTACTATCAAGCTGTACTCGGATATTTTTTTTTCTTTCGGAGTCACCTAGTGCAG	8910 fluorescence intensity (a.u.)
ACTTTTGTCTGGATTAGAAACGTGAGTAATATATGCATATCGGAGTCACCTAGTGCAG	9260 fluorescence intensity (a.u.)
TCCATCCCCACCCTGCTCGACTCCCGCTTCGATGCCGACACGGAGTCACCTAGTGCAG	10300 fluorescence intensity (a.u.)
GCCATATCTTCTTTCTTCTTTCTCTGTCTTCTATTCCAGCCGGAGTCACCTAGTGCAG	14800 fluorescence intensity (a.u.)
GGGTGGGAGTCAGCTCAGCCTCAACTCACTTCCGCTAATTCGGAGTCACCTAGTGCAG	10300 fluorescence intensity (a.u.)
GCTCAAATCCGTTGGTCCCTGTAAAGCGTTGTACAAATGTCGGAGTCACCTAGTGCAG	9830 fluorescence intensity (a.u.)
ATGGTGATGTTATTCCAATCATGATATATGTTGACCTTTACGGAGTCACCTAGTGCAG	10300 fluorescence intensity (a.u.)
AAAAAATAGTCTACTCCTTCCACACCTCTCTCTTGCATGTCGGAGTCACCTAGTGCAG	8760 fluorescence intensity (a.u.)
CACGACCTTAAGCCTCATAATTTGGACAATCACAGCAACTCGGAGTCACCTAGTGCAG	9170 fluorescence intensity (a.u.)
CGGAATCCTCATTCGCTTCGCCTCGCTTCTCTTCTCCGAGCGGAGTCACCTAGTGCAG	8020 fluorescence intensity (a.u.)

Single entries from the results shown:
In binding signal, CCCCTATGCTAGCATGCTACACCCTGTTTTGATCTCACTACGGAGTCACCTAGTGCAG is listed with 10600 fluorescence intensity (a.u.)
In binding signal, TGACTTTTTCTCACATGTTTGACCATTCGTCTTATTAAAACGGAGTCACCTAGTGCAG is listed with 12500 fluorescence intensity (a.u.)
In binding signal, ATGGTGATGTTATTCCAATCATGATATATGTTGACCTTTACGGAGTCACCTAGTGCAG is listed with 10300 fluorescence intensity (a.u.)
In binding signal, GTGCCGCCGACTTTCCTACATCGCGTCCATCCGTGTTCTTCGGAGTCACCTAGTGCAG is listed with 10200 fluorescence intensity (a.u.)
